The list shows a part of the results.
Assays:
Assay in all cases: glycan array binding signal (z-score within array); higher = stronger binding
Settings in all cases: glycan notation: IUPAC condensed, linker removed; mutation: D224N
Gal(b1-3)GalNAc(b1-3)Gal = biological target: Gal(b1-3)GalNAc(b1-3)Gal
In short: (§1)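 The binding signal is a Z-score computed within each array and averaged over linkers. Arrays of the same protein sequence at different concentrations or buffers were also averaged together. Data originate from 3228 arrays in the Consortium for Functional Glycomics database, kept only where the protein sequence was available.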

[1] = biological target: Gal(b1-3)GalNAc(b1-3)Gal(a1-4)Gal(b1-4)Glc
In short: as §1

[2] = biological target: Gal(b1-3)GalNAc(b1-4)Gal(b1-4)Glc
In short: as §1

[3] = biological target: Gal(b1-3)GalNAc(b1-4)[Neu5Ac(a2-3)]Gal(b1-4)Glc
In short: as §1

Gal(b1-3)GlcNAc = biological target: Gal(b1-3)GlcNAc
In short: as §1

[4] = biological target: Gal(b1-3)GlcNAc(a1-3)Gal(b1-4)GlcNAc
In short: as §1

[5] = biological target: Gal(b1-3)GlcNAc(a1-6)Gal(b1-4)GlcNAc
In short: as §1

Gal(b1-3)GlcNAc(b1-2)Man = biological target: Gal(b1-3)GlcNAc(b1-2)Man
In short: as §1

[6] = biological target: Gal(b1-3)GlcNAc(b1-2)Man(a1-3)[Gal(b1-3)GlcNAc(b1-2)Man(a1-6)]Man(b1-4)GlcNAc(b1-4)GlcNAc
In short: as §1

[7] = biological target: Gal(b1-3)GlcNAc(b1-2)Man(a1-3)[Gal(b1-3)GlcNAc(b1-2)Man(a1-6)]Man(b1-4)GlcNAc(b1-4)[Fuc(a1-6)]GlcNAc
In short: as §1

[8] = biological target: Gal(b1-3)GlcNAc(b1-2)Man(a1-3)[GlcNAc(b1-4)][Gal(b1-3)GlcNAc(b1-2)Man(a1-6)]Man(b1-4)GlcNAc(b1-4)GlcNAc
In short: as §1

[9] = biological target: Gal(b1-3)GlcNAc(b1-2)[Gal(b1-3)GlcNAc(b1-6)]Man(a1-6)[Gal(b1-3)GlcNAc(b1-2)Man(a1-3)]Man(b1-4)GlcNAc(b1-4)GlcNAc
In short: as §1

[10] = biological target: Gal(b1-3)GlcNAc(b1-3)Gal(b1-3)GlcNAc
In short: as §1

[11] = biological target: Gal(b1-3)GlcNAc(b1-3)Gal(b1-4)Glc
In short: as §1

[12] = biological target: Gal(b1-3)GlcNAc(b1-3)Gal(b1-4)GlcNAc
In short: as §1

[13] = biological target: Gal(b1-3)GlcNAc(b1-3)Gal(b1-4)GlcNAc(b1-2)Man(a1-3)[Gal(b1-3)GlcNAc(b1-3)Gal(b1-4)GlcNAc(b1-2)Man(a1-6)]Man(b1-4)GlcNAc(b1-4)GlcNAc
In short: as §1

[14] = biological target: Gal(b1-3)GlcNAc(b1-3)Gal(b1-4)GlcNAc(b1-2)[Gal(b1-3)GlcNAc(b1-3)Gal(b1-4)GlcNAc(b1-6)]Man(a1-6)[Gal(b1-3)GlcNAc(b1-3)Gal(b1-4)GlcNAc(b1-2)Man(a1-3)]Man(b1-4)GlcNAc(b1-4)[Fuc(a1-6)]GlcNAc
In short: as §1

[15] = biological target: Gal(b1-3)GlcNAc(b1-3)Gal(b1-4)GlcNAc(b1-3)Gal(b1-4)GlcNAc(b1-2)[Gal(b1-3)GlcNAc(b1-3)Gal(b1-4)GlcNAc(b1-3)Gal(b1-4)GlcNAc(b1-6)]Man(a1-6)[Gal(b1-3)GlcNAc(b1-3)Gal(b1-4)GlcNAc(b1-3)Gal(b1-4)GlcNAc(b1-2)Man(a1-3)]Man(b1-4)GlcNAc(b1-4)[Fuc(a1-6)]GlcNAc
In short: as §1

[16] = biological target: Gal(b1-3)GlcNAc(b1-3)Gal(b1-4)GlcNAc(b1-6)[Gal(b1-3)GlcNAc(b1-3)]Gal(b1-4)Glc
In short: as §1

[17] = biological target: Gal(b1-3)GlcNAc(b1-3)Gal(b1-4)[Fuc(a1-3)]GlcNAc
In short: as §1

[18] = biological target: Gal(b1-3)GlcNAc(b1-3)Gal(b1-4)[Fuc(a1-3)]GlcNAc(b1-6)[Gal(b1-3)GlcNAc(b1-3)]Gal(b1-4)Glc
In short: as §1

[19] = biological target: Gal(b1-3)GlcNAc(b1-3)GalNAc
In short: as §1

[20] = biological target: Gal(b1-3)GlcNAc(b1-6)Gal(b1-4)GlcNAc
In short: as §1

[21] = biological target: Gal(b1-3)GlcNAc(b1-6)GalNAc
In short: as §1

[22] = biological target: Gal(b1-3)GlcNAc(b1-6)[Gal(b1-3)]GalNAc
In short: as §1

Gal(b1-3)GlcNAc6S = biological target: Gal(b1-3)GlcNAc6S
In short: as §1

[23] = biological target: Gal(b1-3)[Fuc(a1-4)]GlcNAc
In short: as §1

[24] = biological target: Gal(b1-3)[Fuc(a1-4)]GlcNAc(b1-2)Man
In short: as §1

[25] = biological target: Gal(b1-3)[Fuc(a1-4)]GlcNAc(b1-2)Man(a1-3)[Gal(b1-3)[Fuc(a1-4)]GlcNAc(b1-2)Man(a1-6)]Man(b1-4)GlcNAc(b1-4)[Fuc(a1-6)]GlcNAc
In short: as §1

[26] = biological target: Gal(b1-3)[Fuc(a1-4)]GlcNAc(b1-3)Gal(b1-3)[Fuc(a1-4)]GlcNAc
In short: as §1

[27] = biological target: Gal(b1-3)[Fuc(a1-4)]GlcNAc(b1-3)Gal(b1-4)[Fuc(a1-3)]GlcNAc
In short: as §1

[28] = biological target: Gal(b1-3)[Fuc(a1-4)]GlcNAc(b1-6)GalNAc
In short: as §1

[29] = biological target: Gal(b1-3)[GlcNAc(b1-6)]GalNAc
In short: as §1

[30] = biological target: Gal(b1-3)[Neu5Ac(a2-6)]GalNAc
In short: as §1

[31] = biological target: Gal(b1-3)[Neu5Ac(a2-6)]GlcNAc(b1-4)Gal(b1-4)Glc
In short: as §1

[32] = biological target: Gal(b1-3)[Neu5Ac(b2-6)]GalNAc
In short: as §1

Gal(b1-4)Gal = biological target: Gal(b1-4)Gal
In short: as §1

[33] = biological target: Gal(b1-4)GalNAc(a1-3)[Fuc(a1-2)]Gal(b1-4)GlcNAc
In short: as §1

B1: a L Fucosidase (Thermotoga maritima) (protein)
chain: MASMKPRYKPDWESLREHTVPKWFDKAKFGIFIHWGIYSVPGWATPTGELGKVPMDAWFFQNPYAEWYENSLRIKESPTWEYHVKTYGENFEYEKFADLFTAEKWDPQEWADLFKKAGAKYVIPTTKHHDGFCLWGTKYTDFNSVKRGPKRDLVGDLAKAVREAGLRFGVYYSGGLDWRFTTEPIRYPEDLSYIRPNTYEYADYAYKQVMELVDLYLPDVLWNNMGWPEKGKEDLKYLFAYYYNKHPEGSVNDRWGVPHWDFKTAEYHVNYPGDLPGYKWEFTRGIGLSFGYNRNEGPEHMLSVEQLVYTLVDVVSKGGNLLLNVGPKGDGTIPDLQKERLLGLGEWLRKYGDAIYGTSVWERCCAKTEDGTEIRFTRKCNRIFVIFLGIPTGEKIVIEDLNLSAGTVRHFLTGERLSFKNVGKNLEITVPKKLLETDSITLVLEAVEE
Gal(b1-3)GalNAc(b1-3)Gal
  glycan array binding signal (z-score): 0.407
[1]
  glycan array binding signal (z-score): 1.17
[2]
  glycan array binding signal (z-score): 1.1
[3]
  glycan array binding signal (z-score): -0.462
Gal(b1-3)GlcNAc
  glycan array binding signal (z-score): -0.496
[4]
  glycan array binding signal (z-score): -0.466
[5]
  glycan array binding signal (z-score): 0.161
Gal(b1-3)GlcNAc(b1-2)Man
  glycan array binding signal (z-score): 0.366
[6]
  glycan array binding signal (z-score): -0.261
[7]
  glycan array binding signal (z-score): -0.448
[8]
  glycan array binding signal (z-score): 0.08
[9]
  glycan array binding signal (z-score): 0.638
[10]
  glycan array binding signal (z-score): -0.615
[11]
  glycan array binding signal (z-score): -0.283
[12]
  glycan array binding signal (z-score): -0.873
[13]
  glycan array binding signal (z-score): -0.13
[14]
  glycan array binding signal (z-score): 0.356
[15]
  glycan array binding signal (z-score): 0.162
[16]
  glycan array binding signal (z-score): -0.509
[17]
  glycan array binding signal (z-score): -0.636
[18]
  glycan array binding signal (z-score): -0.158
[19]
  glycan array binding signal (z-score): -0.822
[20]
  glycan array binding signal (z-score): -0.61
[21]
  glycan array binding signal (z-score): -0.257
[22]
  glycan array binding signal (z-score): -0.501
Gal(b1-3)GlcNAc6S
  glycan array binding signal (z-score): -0.754
[23]
  glycan array binding signal (z-score): 0.151
[24]
  glycan array binding signal (z-score): -1.03
[25]
  glycan array binding signal (z-score): -0.017
[26]
  glycan array binding signal (z-score): -1.02
[27]
  glycan array binding signal (z-score): -0.599
[28]
  glycan array binding signal (z-score): -0.164
[29]
  glycan array binding signal (z-score): 0.054
[30]
  glycan array binding signal (z-score): -0.103
[31]
  glycan array binding signal (z-score): -1
[32]
  glycan array binding signal (z-score): -0.445
Gal(b1-4)Gal
  glycan array binding signal (z-score): -0.621
[33]
  glycan array binding signal (z-score): -0.318

Reference: the supplement of paper PMC8728848
